In all, about 210,000 compounds went through this assay and about 5,900 (2.8%) were called active. About 5% were inconclusive and are not listed. Calls follow the shape of the dose curve; as a rule, active = well fitted activation curve with a large enough effect; inconclusive = small, poorly fitted or top-dose-only effect; inactive = no such curve, though single readings can be large or run the other way. This is a selection; strong and weak results do not stand in their true shares. The source gives no active or inactive call for entries shown without one.

This is an account of results in PubChem BioAssay AID1458 (National Center for Advancing Translational Sciences (NCATS), 2008).
Potency is read from the fitted curve at half-maximal effect.

The nature of this assay: qHTS Assay for Enhancers of SMN2 Splice Variant Expression. Also: nearly all actives have a fitted effect of over 55% in size. As to activity change, positive = activation: % of control where 0% means no effect. The settings on record: HEK293 SMN2-luciferase splicing reporter, luminescence, 30-36 h; activity change, positive = activation: at 46.1 µM (top of the series) unless noted. The gist of the method:
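HEK293 cells carry an SMN2 minigene-luciferase reporter in which exon 7 inclusion puts luciferase in frame. Cells were seeded at 2000 cells/well, attached for 10-12 hours, then exposed to compounds for 30-36 hours at 37C before ONE-Glo luminescence.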
A general note: In qHTS, concentration-response curves come from the screen itself.
As to `O=C(O)/C=C/C(=O)Nc1ccc2nccnc2c1`, the “activity change, positive = activation” value is inactive: 42.4%.
`O=C(O)c1ccccc1N/N=C\c1ccnc2ccccc12`: the Potency was active: 5.01 µM.
Consider `COC(=O)c1ccc(CO/N=C/c2ccc(OC)cc2)o1`, for which the activity change, positive = activation was found to be 161%.
Turning to `CC(C)CNC(=S)NC(=O)c1ccccc1Cl`, the activity change, positive = activation was 33%.
For `NC(=O)NC(CC(=O)NCCCc1ccccc1)c1ccccc1Cl` (stereo not drawn), the activity change, positive = activation was -14.4%.
The same measure, in the same setting: as for `CC(C)C(C(=O)Nc1ccc2c(c1)OCCOCCOCCOCCO2)N1C(=O)c2ccccc2C1=O` (stereo not drawn), the figure is inactive: -18.3%.
For `CCN(CC)CCNC(=O)c1ccccc1C(=O)c1ncc[nH]1`, the activity change, positive = activation was -38.8%.
Still for that read-out and setting: the figure for `CCOc1ccc(C(=O)N(Cc2nc(-c3cccc(C)c3)no2)C(C)C)cc1` is 36.7%; for `Cc1ccc(C(=O)N/C(=C/c2ccco2)C(=O)NCCCn2ccnc2)cc1` it is 36.4%.
`N/C(=N\OC(=O)c1ccccc1Cl)c1ccc(Cl)cc1`: the Potency is active: 15.8 µM.
Consider `Cc1cc2c(cc1C)NC(c1nc3ccccc3[nH]1)C1=C(CC(C)(C)CC1=O)N2` (stereo not drawn), for which the activity change, positive = activation came to 31.1%.
Still for that read-out and setting: the figure for `CC(=O)c1c(C)oc2c1C(=O)c1ccccc1C2=O` is -89.7%; for `N#Cc1c(/N=C\c2ccc(O)c([N+](=O)[O-])c2)sc2c1CCCC2` it is 105%.
The same measure, in the same setting: as for `O=C(CCc1ccc(S(=O)(=O)N2CCOCC2)cc1)Nc1nc(COc2ccccc2)cs1`, the figure is inactive: -64.5%.
Same read-out and setting: the figure for `COc1cc(C(=O)Oc2ccccc2/C=N/NC(=O)c2ccc(C)c(Cl)c2)cc(OC)c1OC` is inactive: -95.9%.
Turning to `Cc1ccnc(NC(=O)c2cc3ccccc3oc2=O)c1`, the Potency was active: 11.2 µM.
For `Cc1ccc(NC(=O)NC2(C(=O)NCc3ccco3)CCCCC2)cc1`, the activity change, positive = activation amounted to 48.3%.
On to `COc1ccccc1NC(=S)NC1CCCCC1`, for which the activity change, positive = activation was 32.6%.
Still for that read-out and setting: as for `Cc1cc(=O)n2c(-c3ccccc3C)n[nH]c2n1`, the figure is 37.2%.
Take `Cc1cccc(N/N=C/c2ccccc2O)c1`: the Potency was active: 11.2 µM.
As to `O=c1c2cc(N3CCOCC3)ccc2[nH]c(=S)n1Cc1ccco1`, the activity change, positive = activation is 31.7%.
For `c1coc(C2=Nc3cccc4cccc(c34)N2)c1`, the “activity change, positive = activation” value is inactive: -36.8%.
Same read-out and setting: the figure for `CCOC(=O)c1ccc2c(c1)nc(COc1ccccc1C#N)n2CC` is 51.2%.
The same measure, in the same setting: as for `O=C(Cc1ccccc1)NN1C(=O)C2C3C=CC(C3)[C@@H]2C1=O` (stereo partly drawn), the figure is inactive: 7.56%; as for `CN(C)S(=O)(=O)c1ccc(NC(=O)N2CCN(c3ccccc3Cl)CC2)cc1`, inactive: -48.2%; as for `COc1ccc(Cc2[nH]n3c(=O)cc(C(C)C)nc3c2-c2ccccc2)cc1`, inactive: -78.5%.
Consider `COc1ccc(-c2cc3ncc(C(C)=O)c(C)n3n2)cc1`, for which the Potency was active: 11.2 µM.
In the case of `Cc1ccc(S(=O)(=O)N2CCCC2C(=O)Oc2ccccc2)cc1` (stereo not drawn), the activity change, positive = activation stood at 46.8%.
On to `COc1ccc(C(N)=O)cc1NC(=O)CC(O)(C(F)(F)F)C(F)(F)F`, for which the activity change, positive = activation came out at 34.1%.
For the compound `COc1cc(S(=O)(=O)Nc2cccc(C)c2)ccc1NC(=O)c1cccnc1`, the “activity change, positive = activation” value is inactive: -37.5%.
Same read-out and setting: as for `O=C(COc1ccc(Cl)cc1)Nc1ccc(C(=O)NCc2cccnc2)cc1`, the figure is -59.3%.
For `COc1ccc(Cn2c(=O)sc3ccccc32)cc1OC`, the activity change, positive = activation is -63.8%.
Still for that read-out and setting: as for `CCOC(=O)CSc1nc2cc(C(=O)N3CCC(C(N)=O)CC3)ccc2c(=O)n1-c1ccccc1`, the figure is 43.5%.
In the case of `Cc1csc(NC(=O)CSc2nnc(-c3ccccc3)o2)n1`, the Potency was active: 11.2 µM.
In the case of `Cc1ccc(S(=O)(=O)Cc2ccc(C(=O)N3CCN(Cc4ccccc4)CC3)o2)cc1`, the “activity change, positive = activation” value is inactive: -33%.
For the compound `CCOC(=O)CCCCC(=O)c1[nH]c(=O)[nH]c1CN1CCOCC1`, the activity change, positive = activation was found to be 22%.
The same measure, in the same setting: as for `Cn1cc([N+](=O)[O-])c(C(=O)Nc2cc(Oc3cccnc3)cc([N+](=O)[O-])c2)n1`, the figure is inactive: -44.9%; as for `COc1ccc(CC(=O)Nc2ccc(-c3csc(C)n3)cc2)cc1`, 39.6%.
As for `CCOC(=O)c1c(C)[nH]c(C(=O)CSc2nc3ccccc3o2)c1C`, the Potency was active: 0.316 µM.
As for `CCC(=O)NC(=S)Nc1ccc2oc(-c3ccc(OC)cc3)nc2c1`, the Potency is active: 7.94 µM.
With `O=C(CCNC(=O)c1ccccc1Cl)Nc1nc2ccccc2s1`, the activity change, positive = activation turned out to be 74.3%.
The same measure, in the same setting: the figure for `CCCCN(CCCC)C(=O)c1nsnc1-c1ccccc1O` is 32.8%.
On the same count and under the same terms, as for `CN(C(=O)C1CCOC1)c1nnc(-c2ccccn2)s1` (stereo not drawn), the figure is inactive: 80.2%.
Same read-out and setting: the figure for `c1ccc2c(c1)OCC(CNc1ncnc3sccc13)O2` (stereo not drawn) is inactive: -63.5%.
For the compound `COc1cc2c(cc1OC)C(c1cc3cc4c(cc3[nH]c1=O)OCO4)N(C(=O)C(C)C)CC2` (stereo not drawn), the activity change, positive = activation was -40.9%.
As to `C[N+](C)(C)CCCCCC(=O)/C=N/O`, the activity change, positive = activation is -32.4%.
Same read-out and setting: the figure for `Nc1nonc1-c1nc2ccccc2n1CC(=O)Nc1cccc(C(F)(F)F)c1` is 40%; for `CCOC(=O)c1[nH]c(C)c(C(=O)Nc2cccc(Cl)c2C)c1C` it is 44.9%.
As to `Clc1ccc(CN=C2Nc3ccccc3CS2)cc1`, the Potency is active: 12.6 µM.
Regarding `Cc1cccc(NS(=O)(=O)c2ccc(C)c(C(=O)OCC(=O)Nc3cc(C)on3)c2)c1`, the Potency is active: 20 µM.
Regarding `Clc1ccccc1/C=N/NC1=Nc2cccc3cccc1c23`, the Potency is active: 5.62 µM.
Turning to `CCOC(=O)c1sc(NC(=O)c2cc(-c3ccc(C)cc3)nc3ccccc23)c(C#N)c1C`, the “activity change, positive = activation” value is inactive: -78.4%.
Same read-out and setting: the figure for `Cc1ccc(-c2nc3ccccc3o2)cc1NC(=O)c1ccc2c(c1)OCO2` is 54.6%.
